In patent publication US20040254629A1, “Methods and apparatus for treatment of aneurysmal tissue” (priority 2003, published 2004):
For at least one compound, name, drawing or mass did not settle the structure.

Legend:
[1] = test system: MMP-9 expression in stimulated human-derived white blood cells; experiment: Combination therapeutic assay, MMP-9 content; format: cell-based; details: DOX at 5.69 ug/ml, DEX at 1 ug/ml, alone or combined; 24 hours at 37° C.
Method: Next, to test the effect of therapeutics in combination, assays were performed to determine the effect of doxycycline alone (DOX at 5.69 ug/ml); dexamethasone alone (DEX at 1 ug/ml) and the effect of a combination of doxycycline and dexamethasone (DOX at 5.69 ug/ml)+DEX at 1 ug/ml). Dexamethasone is a potent agent with broad anti-inflammatory (against cytokines, chemokines, prostaglandins, etc.) and immunosuppressive properties. Dexamethasone also has known anti-angiogenic properties. Doxycycline was used as the MMP inhibitor for these studies.
Briefly, human-derived white blood cells were placed in a 24 well plate and exposed to a stimulant (PHA or lipopolysaccharide (LPS)) and the three different treatment regimes for a period of 24 hours at 37° C. The supernatants were then collected and assayed for MMP-9 and IL-1 content.

[2] = Stability assay of doxycycline and dexamethasone in combination; format: physicochemical; details: DOX (56.9 ug/ml)+DEX (10 ug/ml) mixture, 4 days at 37° C.
Method: A stability assay was first performed to ascertain whether doxycycline and dexamethasone react with one another. High concentrations of each solution were combined (DOX (56.9 ug/ml)+DEX (10 ug/ml)) and allowed to incubate for 4 days at 37° C. in an orbital shaker. At the end of four days the concentrations of each drug in the mixture was determined by spectrophotometry and compared to the original concentrations.

For `C[C@@H]1C[C@H]2[C@@H]3CCC4=CC(=O)C=C[C@]4(C)[C@@]3(F)[C@@H](O)C[C@]2(C)[C@@]1(O)C(=O)CO` [DEX, dexamethasone], the “inhibition of MMP-9 compared to the control” value [1] was “inhibited MMP-9 to a greater degree”, the “Final Concentration” value ([2]; MES buffer) was “˜8.2 ug/ml” and the “Final Concentration” value ([2]; PBS buffer) was “˜8.2 ug/ml”.
